Results reported in PubChem BioAssay AID588499 (NMMLSC, 2011).
In all, about 360,000 compounds went through this assay and about 610 (0.17%) were called active. The inconclusive results got no clear call from the source; some entries with a clear call stand among them for comparison. Cut-off read from the data, not from the text of the source: active = inhibition above about 30%; inconclusive = no clear call, values can overlap the other calls; inactive = below that.

What follows are compounds tested on Botulinum neurotoxin type A light chain protease (Clostridium botulinum A str. ATCC 3502) (assay: blockers of BoNT/A LC substrate cleavage – biochemical, flow cytometry, MLPCN library, primary screen (AID 588499; note: plate controls were buffer without enzyme for full effect and enzyme alone for no effect)). Details: multiplex microsphere protease substrate cleavage, at 10 µM, stronger effect = higher value.

| SMILES | inhibition |
| --- | --- |
| Cc1csc(NC(=O)CSc2nsc(SCC(=O)Nc3nc(C)cs3)c2C#N)n1 | inconclusive: 7.8% |
| CC(C)(C)c1ccc(C(=O)c2c[nH]c(C(=O)NCCCn3ccnc3)c2)cc1 | inconclusive: -5.9% |
| COc1ccc(CCNC(=O)C(=O)NN=C2CCCCCCC2)cc1OC | inconclusive: 18.3% |
| COc1ccc(S(=O)(=O)NCCSCc2ccccc2C)cc1Br | inactive: 1.1% |
| COc1cc2nc(SCC(=O)NCc3ccco3)n(Cc3ccc(Cl)cc3)c(=O)c2cc1OC | inconclusive: -2.1% |
| OCCCNc1ncnc2sc3c(c12)CCN(Cc1ccccc1)C3 | active: 35.1% |
| COc1cc(/C=C/C(=O)c2ccc(Cl)s2)cc(OC)c1O | inconclusive: 1.6% |
| CC(=O)N1N=C(c2ccc(Cl)cc2)OC12CCCC2 | inactive: 2.8% |
| COc1ccc2cc(C(=O)NCc3ccco3)c(=Nc3ccc(C(=O)O)cc3)oc2c1 | inactive: -0.8% |
| COc1ccc(-c2nnc(SCC(=O)NCc3ccco3)n2C)cc1 | inconclusive: -0.1% |
| CC(=O)Oc1ccc(C(=O)Nc2cccc(C(=O)Nc3ccccc3C(=O)O)c2)cc1 | inactive: -0.8% |
| COc1ccc2[nH]c3c(=O)n(Cc4ccncc4)cnc3c2c1 | inactive: -1% |
| CC(Oc1ccccc1F)C(=O)NNC(=O)Cc1ccc(S(=O)(=O)N2CCOCC2)s1 (centres undefined) | active: 99.7% |
| C=CCn1c(CNC(=O)c2cccs2)nnc1SCC(=O)Nc1ccc(C(=O)O)cc1 | inconclusive: 4.6% |
| Cc1ccc(N2CC(C(=O)Nc3ccc(S(=O)(=O)NCC4CCCO4)cc3)CC2=O)cc1C (centres undefined) | inactive: -0.4% |
| CC(=O)Nc1cccc(C(=O)OC(C)C(=O)N2CCc3ccccc32)c1 (centres undefined) | inconclusive: 0.3% |
| CCNC(=O)C1CCCN(C(=O)c2ccc(OC(F)F)cc2)CC1 (centres undefined) | inactive: -0.8% |
| CCc1ccc(OCC(=O)OCC(=O)NCCNC(=O)COC(=O)COc2ccc(CC)cc2)cc1 | inactive: -0.2% |
| Nn1c(SCC(=O)Nc2ccccc2F)nc2ccccc2c1=O | inconclusive: -1.3% |
| CC(=O)c1cccc(N(CC(=O)N2CCCCC2)S(C)(=O)=O)c1 | inconclusive: -3% |
| CC(Oc1ccc(F)cc1F)C(=O)/C=C/N(C)C (centres undefined) | inconclusive: -0.7% |
| CCCCn1c(-c2cccs2)nc2oc3ccccc3c(=O)c2c1=O | inconclusive: -2.8% |
| COc1ccccc1C1C(C(C)=O)=C(O)C(=O)N1c1ccc(O)cc1 (centres undefined) | inconclusive: -3.3% |
| COc1ccc(Cl)cc1-c1nc(SCC(=O)NC(C)C)n[nH]1 | inactive: 0.8% |

| SMILES | inhibition |
| --- | --- |
| O=C(NC1CCCCCC1)c1ccc([N+](=O)[O-])s1 | inactive: 3% |
| Cn1c(-c2ccc(F)cc2)cnc1NCc1cccc(F)c1 | inactive: -0.4% |
| CCCN1CCC2(CC1)NC(C(=O)O)Cc1c2[nH]c2ccccc12 (centres undefined) | inactive: 1.3% |
| Cc1nn(CC(C)C)c(=S)[nH]c1=O | inconclusive: -4.4% |
| CC(C)(C)c1ccc(SCCc2cccnc2)cc1 | inconclusive: -36.7% |
| O=C(Nc1ccc2c(c1)OCO2)Nc1cnccn1 | inactive: -3.8% |
| Brc1cc2c(cc1C1OCCCO1)OCO2 | inactive: -0.3% |
| CCc1ccc(OCC(=O)N/N=C\c2ccco2)c([N+](=O)[O-])c1 | inactive: -0.7% |
| CCOC(=O)Cc1cc(=O)n2[nH]c(-c3ccccc3)c(-c3ccccc3)c2n1 | inactive: 0.1% |
| COc1cc(OC)c(OC)cc1CN1CCN(c2ccccc2OC)CC1 | inconclusive: -2.6% |
| NC(=O)c1ccc(OCC(F)(F)F)nc1 | inconclusive: 5.6% |
| O=C(COc1ccc2c3c(c(=O)oc2c1)CCCC3)NCCN1CCOCC1 | inactive: 1.5% |
| Cc1cc(NC(=O)CSc2ccc3nnc(-c4ccc(F)cc4)n3n2)no1 | inactive: -0.1% |
| CCN1C(=O)[C@H]2[C@@H](c3ccc(-c4ccccc4)cc3)N3CCC[C@@]3(C(=O)OC)[C@H]2C1=O | inactive: -0.1% |
| CCN(CC)C(=O)CSc1nc2ncccc2[nH]1 | inconclusive: -3.2% |
| COC1=C(Nc2ccc(C)cc2)C(=O)c2ccccc2C1=O | inactive: -0.7% |
| Cc1cccc(C)c1-n1nnnc1SCSc1nnnn1-c1c(C)cccc1C | inconclusive: 3.9% |
| Cc1c(CNC(=O)c2nn3c(c2Cl)NC(c2ccccc2)CC3C(F)(F)F)cnn1C (centres undefined) | inconclusive: -2% |
| CCOC(=O)c1sc(/S(C)=N\S(=O)(=O)c2cccc(Cl)c2)c2c1CCC=C2 (centres undefined) | inconclusive: 3.8% |
| Cc1ccc(C(=O)N/N=C\c2ccc(-c3ccc([N+](=O)[O-])cc3)o2)cn1 | inconclusive: -34.6% |
| Cc1cc(NC(=O)COC(=O)CSCc2ccc(Cl)c(Cl)c2)no1 | inconclusive: 0.7% |
| COc1ccc(S(=O)(=O)N(C)CC(=O)N2CCC(C(N)=O)CC2)cc1Cl | inconclusive: -2% |
| O=C(OCC(=O)N1CCCc2ccccc21)c1ccc(F)c(S(=O)(=O)N2CCOCC2)c1 | inconclusive: 29.7% |
| O=C(CSc1nc2ccc(Nc3nc(N4CCCC4)nc(N4CCCC4)n3)cc2s1)NCc1ccco1 | inconclusive: 4.7% |

Gathered by group: the entries above containing a CF3 group.

| SMILES | inhibition |
| --- | --- |
| NC(=O)c1ccc(OCC(F)(F)F)nc1 | inconclusive: 5.6% |
| Cc1c(CNC(=O)c2nn3c(c2Cl)NC(c2ccccc2)CC3C(F)(F)F)cnn1C (centres undefined) | inconclusive: -2% |

Next entries follow.

| SMILES | inhibition |
| --- | --- |
| Cc1nn(Cc2c(F)cccc2Cl)c(C)c1NC(=O)C1CC1 | inactive: 0.2% |
| CC(=O)Nc1ccc(NC(=O)Cn2c(-c3ccc(F)cc3)cnc2SCC(=O)Nc2c(C)cccc2C)cc1 | inconclusive: -2.2% |
| CC(=O)SCCC(=O)Nc1ccccc1 | inconclusive: 14.8% |
| COc1cccc(C2=CC(c3ccc(N(C)C)cc3)n3nnnc3N2)c1 (centres undefined) | inactive: 1.7% |
| COC(=O)c1cc(=O)n(-c2ccc(C(F)(F)F)cc2)[nH]1 | inconclusive: 7.5% |
| Cc1ccc(C(=O)NNC(=O)Cc2ccccc2)cc1 | inconclusive: 0.9% |
| COc1ccc(OCc2cc(C(=O)N3CCCC(OC)C3)no2)c2ccccc12 (centres undefined) | inactive: 0.6% |
| COc1cc(C(=O)N2CCC(NC(=O)C(Cc3ccccc3)NC(C)=O)CC2)cc(OC)c1OC (centres undefined) | inconclusive: 1.1% |
| COc1ccc2c(c1)sc1nc(=O)ccn12 | inactive: -0.8% |
| CCCCC1CC1C(=O)Nc1ncc2c(n1)CC(C)(C)CC2=O (centres undefined) | inconclusive: 8.2% |
| COc1ccc(CN2CCN(C(=O)c3cc(OC)c(OC)c(OC)c3)CC2)cc1OC | inconclusive: 5.6% |
| Cc1ccc(C)c(NC(=O)N2CCCCCC2)c1 | inactive: 4.6% |
| CC(C)C(=O)Nc1cccc(NC(=S)NC(=O)c2ccccc2Cl)c1 | inconclusive: -2% |
| OCCCn1c(-c2ccccc2)nc(=S)c2c1CCCC2 | inconclusive: 0.9% |
| COc1ccc2sc(-c3ccc(S(C)(=O)=O)cc3)c(C#CCO)c2c1 | inactive: 3.5% |
| O=C(c1cccs1)n1nc(-c2ccccc2)nc1NCc1ccc(F)cc1 | inconclusive: -4.8% |
| CCOC(=O)c1c(-n2cnnn2)sc(C)c1C | inconclusive: 1.7% |
| Cc1cc(C(=O)NC(C)c2ccc3c(c2)OCO3)cs1 (centres undefined) | inconclusive: -6.5% |
| CCCOC(=O)c1cccc(Nc2nc(-c3cccnc3)nc3ccccc23)c1 | inactive: 1.1% |
| O=[N+]([O-])c1cccc(/C=N/NC2CCS(=O)(=O)C2)c1 (centres undefined) | inactive: 1.1% |
| CCN(CC)c1ccc(C=Nc2cc(C)cc(C)c2)c(O)c1 | active: 50.2% |
| O=C(O)CCC(=O)N1CCN(c2ncccn2)CC1 | inactive: -0.7% |
| Cc1cccc2c1NC(=O)/C2=C\C(=O)c1cccs1 | inconclusive: -2.9% |
| c1ccc(COn2nnc3ccccc32)c(COn2nnc3ccccc32)c1 | inconclusive: -1.1% |

Part of the list above in another layout:
SMILES	inhibition
CCN(CC)c1ccc(C=Nc2cc(C)cc(C)c2)c(O)c1	active: 50.2%
O=C(O)CCC(=O)N1CCN(c2ncccn2)CC1	inactive: -0.7%

Next structures follow.

| SMILES | inhibition |
| --- | --- |
| COc1ccc(C(=O)NC(CC(C)C)C(=O)O)cc1OC (centres undefined) | inconclusive: -2.4% |
| COc1ccccc1N1CCN(C(=O)c2cc3c(s2)CCC3)CC1 | inactive: -0.1% |
| COc1ccccc1NC(=S)NCc1ccc2c(c1)cc(C)n2C | active: 33.4% |
| c1ccc2c(c1)OCC(c1nn3c(Cn4nnc5ccccc54)nnc3s1)O2 (centres undefined) | inconclusive: 0.3% |
| Cc1ccc(CSc2nc3sc(C)c(C)c3c(=O)n2Cc2ccco2)cc1 | inactive: 0.9% |
| COc1ccc(C(=O)NNC(=O)CNC(=O)C2CCCCC2)cc1 | inactive: 1.6% |
| O=C(Nc1ccc2nc(-c3ccco3)c(-c3ccco3)nc2c1)N1CCN(c2ccccn2)CC1 | active: 41.2% |
| COc1ccc(S(=O)(=O)N2CCN(CC(=O)NC(C)c3cccs3)CC2)cc1 (centres undefined) | inactive: -0.7% |
| CC1Cc2ccccc2N1Cc1cccc([N+](=O)[O-])c1 (centres undefined) | inactive: -2.1% |
| Cc1noc(C)c1C(=O)N1CCC(Cc2ccccc2)CC1 | inconclusive: 0.8% |
| CC1=C(C(=O)N2CCCCCC2)CC(CC(=O)NCCCCc2ccccc2)C(=O)N1Cc1ccccc1 (centres undefined) | inactive: -0.7% |
| CN(C)c1ccc(-c2csc(C(O)c3ccc(F)c(F)c3)n2)cc1 (centres undefined) | inactive: 0.1% |
| COc1ccc(CCn2c(=S)[nH]c3ccc(N4CCOCC4)cc3c2=O)cc1OC | inactive: -0.7% |
| O=C(NC1CSCC1OC(=O)c1ccccc1)c1ccccc1 (centres undefined) | inactive: -0.8% |
| CCc1cccc2c1NC1(CCCC1)CC2C (centres undefined) | inconclusive: 1.6% |
| Cc1ccc(-n2nnnc2SCC(N)=O)c(C)c1 | inactive: -0.9% |
| CC1=NN(c2ccccc2)C(=O)/C1=C\c1sccc1C | inconclusive: 16.3% |
| COc1ccc(CC[n+]2cc(/N=C(\C)[O-])on2)cc1OC | inconclusive: 2% |
| CN1Cc2c(N3CCOCC3)nc3sc(C#N)c(N)c3c2CC1(C)C | inconclusive: -62% |
| CCCOc1ccccc1C(=O)NC(CO)C(=O)O (centres undefined) | inconclusive: -4.5% |
| CCCCCCCCCCCCN1C(=O)CSC1c1cccnc1 (centres undefined) | inconclusive: -10.5% |
| c1ccc2c(c1)CCN(CCCNc1nc3ccccc3n3cnnc13)C2 | inactive: -0.7% |

Retrieved one by one from the list above (2):

| SMILES | inhibition |
| --- | --- |
| COc1ccc(C(=O)NC(CC(C)C)C(=O)O)cc1OC (centres undefined) | inconclusive: -2.4% |
| Cc1ccc(-n2nnnc2SCC(N)=O)c(C)c1 | inactive: -0.9% |
